The other results are listed elsewhere or left out.
Tests used:
Test in all cases: log2 fold change, soluble protein after heating vs DMSO (PISA); higher = thermal stabilisation; K562 lysate, 10 uM; active = over 0.2 and 3.5 SD of the protein, either way, in both replicates (recomputed)
[1] = compound: NCC(=O)Nc1ccc(-n2nc(C(F)(F)F)cc2-c2ccc3c(ccc4ccccc43)c2)cc1
Procedure, shortened: (§1)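 Thermal stability, expressed as log-two fold change relative to solvent controls, is given from duplicates. Crude K562 extract in PBS pH 7.4 with 1 mM MgCl2, at 1 mg/mL protein, was treated with 10 μM compound for 30 min and heated in aliquots for 3 min across 48°C-58°C. After pooling, adjustment to 0.5% NP-40 at 4°C and centrifugation at 21,000xg for 90 min, supernatant protein was measured by TMTpro 16plex LC-MS/MS with channel sums equalised.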

The chains behind the UniProt entries cited, without tags or fusion partners. Where a name states a change or a piece, a line headed by the entry shows the natural chain unless it says otherwise.
UniProt Q9Y230, whole entry, looked up: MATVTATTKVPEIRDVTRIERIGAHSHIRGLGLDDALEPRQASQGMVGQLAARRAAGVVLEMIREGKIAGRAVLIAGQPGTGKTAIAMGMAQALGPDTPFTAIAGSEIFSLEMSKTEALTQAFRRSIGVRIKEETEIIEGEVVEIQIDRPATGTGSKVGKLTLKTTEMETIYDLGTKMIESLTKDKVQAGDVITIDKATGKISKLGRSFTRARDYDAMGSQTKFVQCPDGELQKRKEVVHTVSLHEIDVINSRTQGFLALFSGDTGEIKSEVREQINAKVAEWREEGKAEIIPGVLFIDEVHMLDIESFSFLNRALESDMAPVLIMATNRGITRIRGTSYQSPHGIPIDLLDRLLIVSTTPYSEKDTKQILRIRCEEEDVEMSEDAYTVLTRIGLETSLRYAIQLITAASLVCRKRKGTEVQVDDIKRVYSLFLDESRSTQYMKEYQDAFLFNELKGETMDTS
UniProt Q9Y3A4: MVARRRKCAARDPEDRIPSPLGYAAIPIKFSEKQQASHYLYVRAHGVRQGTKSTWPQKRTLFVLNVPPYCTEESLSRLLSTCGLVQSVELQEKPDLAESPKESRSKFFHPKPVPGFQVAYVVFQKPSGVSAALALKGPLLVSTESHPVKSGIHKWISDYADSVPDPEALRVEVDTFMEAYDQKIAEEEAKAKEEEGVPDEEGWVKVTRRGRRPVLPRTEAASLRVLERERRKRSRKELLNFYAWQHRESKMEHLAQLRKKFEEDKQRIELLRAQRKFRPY
UniProt Q9Y3I0: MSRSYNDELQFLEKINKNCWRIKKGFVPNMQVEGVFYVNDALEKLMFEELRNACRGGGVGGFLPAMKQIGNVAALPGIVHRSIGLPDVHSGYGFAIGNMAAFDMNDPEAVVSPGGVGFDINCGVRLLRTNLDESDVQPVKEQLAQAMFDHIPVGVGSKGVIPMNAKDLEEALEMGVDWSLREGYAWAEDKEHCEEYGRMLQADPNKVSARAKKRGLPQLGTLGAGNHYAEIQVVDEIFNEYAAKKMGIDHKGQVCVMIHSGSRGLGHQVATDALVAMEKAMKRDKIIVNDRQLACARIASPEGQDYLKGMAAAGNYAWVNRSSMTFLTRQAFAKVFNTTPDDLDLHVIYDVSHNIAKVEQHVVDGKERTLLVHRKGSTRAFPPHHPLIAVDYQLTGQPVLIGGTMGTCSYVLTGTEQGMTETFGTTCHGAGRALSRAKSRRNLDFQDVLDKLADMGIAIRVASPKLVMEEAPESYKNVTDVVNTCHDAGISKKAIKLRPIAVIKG
UniProt P23297: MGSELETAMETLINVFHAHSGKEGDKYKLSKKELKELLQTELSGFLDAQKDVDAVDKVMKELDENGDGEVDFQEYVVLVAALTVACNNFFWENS

[2] = compound: O=C(CCCCCCC(=O)Nc1ccccc1)NO [vorinostat]
Procedure, shortened: as §1

[3] = compound: O=C(O)c1ccc2c(c1)nc(Nc1cccc(Cl)c1)c1ccncc12 [silmitasertib]
Procedure, shortened: as §1

[4] = compound: O=C1NC(=O)C(c2cnc3ccccn23)=C1c1cn2c3c(cc(F)cc13)CN(C(=O)N1CCCCC1)CC2
Procedure, shortened: as §1

[5] = compound: c1cn2cc(-c3ccc4cn[nH]c4c3)nc(Nc3ccc(N4CCOCC4)cc3)c2n1 [entospletinib]
Procedure, shortened: as §1

Measured: log2 fold change

RUVBL2 (UniProt Q9Y230)
inactive: [1] 0.006 | [2] 0.119 | [3] 0.004 | [4] 0.012 | [5] 0.015

RRP7A (UniProt Q9Y3A4)
inactive: [1] 0.067 | [2] -0.189 | [3] -0.059 | [4] -0.034 | [5] 0.008

RPS25 (UniProt P62851)
inactive: [1] -0.003 | [2] 0.163 | [3] 0.032 | [4] 0.032 | [5] 0

RPL7L1 (UniProt Q6DKI1)
inactive: [1] 0.003 | [2] 0.014 | [3] -0.059 | [4] -0.01 | [5] 0.011

RTCB (UniProt Q9Y3I0)
inactive: [1] 0.017 | [2] -0.134 | [3] 0.013 | [4] -0.049 | [5] 0.017

RPS21 (UniProt P63220)
inactive: [1] -0.041 | [2] 0.036 | [3] 0.002 | [4] -0.051 | [5] -0.027

RPS7 (UniProt P62081)
inactive: [1] 0.004 | [2] 0.121 | [3] 0.022 | [4] 0.072 | [5] 0.008

S100A1 (UniProt P23297)
inactive: [1] -0.024 | [2] 0.164 | [3] -0.052 | [4] -0.071 | [5] -0.086

RPS16 (UniProt P62249)
inactive: [1] -0.031 | [2] 0.074 | [3] 0.056 | [4] 0.005 | [5] -0.005
